In PubChem BioAssay AID192 (DTP/NCI, 2004):
The list is a part of this screen's results and no random one: it is rich in T/C values a quarter to a half above the control, in often repeated tests (any T/C) and in doses without a T/C. Further doses and runs are listed elsewhere. T/C gives the treated animals as a percentage of the vehicle group. Some doses have a count of surviving animals in place of a T/C: the source files T/C as zero there, which appears to mark a toxic dose or a test without result, not a measured value. Some survivor counts are full or nearly so, which does not show that the dose was tolerated: survival well below the control is almost never listed, so the zero probably covers shortened survival too. Survivors were counted at the toxicity check, usually on the fifth day, unless a day is given; later deaths do not show. Schedule codes are those of the source, read here as Q, the interval in days (D) or hours (H), X, the number of doses. For survival time, this PubChem deposit counts one and a half times the control or more as active, and values a quarter to a half above the control carry no call in these data; other NCI protocols may use other cut-offs. Some T/C values carry the count of animals alive at the toxicity check (mostly the fifth day); where none is given, no animal had died by that day. Peptide text beside a SMILES is read from it. * marks the point of attachment. Cbz = O=C(OCc1ccccc1)*; Bn = c1ccc(C*)cc1

Tested on: BDF1 mice, B16 melanoma ip, median survival T/C
Assay: NCI In Vivo Anticancer Drug Screen. Data for tumor model B16 Melanoma (intraperitoneal) in B6D2F1 (BDF1) mice
Details: T/C endpoint: median survival time, higher T/C = longer survival
Summary of the method: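 In this screen, activity was judged from survival or tumor size in treated versus vehicle-treated tumor-bearing mice, reported as T/C.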

[1] = dose: 100.0 mg/kg/injection, schedule: Q01DX009 (ip), vehicle: saline
[2] = dose: 50.0 mg/kg/injection, schedule: Q01DX009 (ip), vehicle: saline with Tween-80
[3] = dose: 100.0 mg/kg/injection, schedule: Q01DX009 (ip), vehicle: saline with Tween-80

**Q.** Which results are given for `Nc1ncnc2c1ccn2C1OC(CO)C(O)C1O` (stereo not given)?
**A.** T/C (dose: 1.25 mg/kg/injection, schedule: Q01DX009 (ip), vehicle: saline): 125 % of control; survivor count (dose: 2.5 mg/kg/injection, schedule: Q01DX009 (ip), vehicle: saline): 10 of 10; survivor count (dose: 4.0 mg/kg/injection, schedule: Q01DX009 (ip), vehicle: Klucel (hydroxypropylcellulose) (HPC)): 10 of 10; survivor count (dose: 8.0 mg/kg/injection, schedule: Q01DX009 (ip), vehicle: Klucel (hydroxypropylcellulose) (HPC)): 10 of 10; survivor count (dose: 16.0 mg/kg/injection, schedule: Q01DX009 (ip), vehicle: Klucel (hydroxypropylcellulose) (HPC)): 5 of 10

**Q.** For `CN(C)CCSC(=O)N1c2ccccc2C(C)(C)c2ccccc21`, which survivor count [1] is on record?
**A.** The survivor count was 9 of 10.

**Q.** And the survivor count (dose: 200.0 mg/kg/injection, schedule: Q01DX009 (ip), vehicle: saline)?
**A.** The survivor count was 0 of 10.

**Q.** And the survivor count (dose: 400.0 mg/kg/injection, schedule: Q01DX009 (ip), vehicle: saline)?
**A.** Its survivor count is 0 of 10.

**Q.** Which survivor count (dose: 200.0 mg/kg/injection, schedule: Q01DX009 (ip), vehicle: other) does the source give for `NNC(=O)c1ccc(-c2ccccc2)cc1` here?
**A.** Its survivor count is 6 of 10.

**Q.** Which results are given for `Oc1cc2ccccc2c(-c2c(O)c(O)cc3ccccc23)c1O`?
**A.** survivor count (dose: 200.0 mg/kg/injection, schedule: Q01DX009 (ip), vehicle: saline with Tween-80): 8 of 10; survivor count (dose: 400.0 mg/kg/injection, schedule: Q01DX009 (ip), vehicle: saline with Tween-80): 2 of 10

**Q.** What does the source list for `CC1([CH2][Hg][I])CS(=O)(=O)CC(C)([CH2][Hg][I])O1` (stereo not given)?
**A.** survivor count (dose: 0.3 mg/kg/injection, schedule: Q01DX009 (ip), vehicle: saline sonified): 5 of 6; survivor count (dose: 0.6 mg/kg/injection, schedule: Q01DX009 (ip), vehicle: saline sonified): 6 of 6

**Q.** `CCc1ncnc2cc(OCC3CO3)c(OC)cc12` (stereo not given) was tested. Which T/C (dose: 6.25 mg/kg/injection, schedule: Q01DX009 (ip), vehicle: saline) did it give?
**A.** The T/C was 128 % of control.

**Q.** And the T/C (dose: 12.5 mg/kg/injection, schedule: Q01DX009 (ip), vehicle: saline with Tween-80)?
**A.** The T/C was 128 % of control.

**Q.** What about the T/C (dose: 12.5 mg/kg/injection, schedule: Q01DX009 (ip), vehicle: saline) of the same molecule?
**A.** Its T/C is 143 % of control.

**Q.** And the T/C (dose: 25.0 mg/kg/injection, schedule: Q01DX009 (ip), vehicle: saline with Tween-80)?
**A.** The T/C was 149 % of control.

**Q.** And the T/C (dose: 40.0 mg/kg/injection, schedule: Q04DX003 (ip), vehicle: other)?
**A.** The T/C was 125 % of control.

**Q.** What about the survivor count [2] of the same molecule?
**A.** The survivor count was 10 of 10.

**Q.** What about the T/C (dose: 50.0 mg/kg/injection, schedule: Q01DX009 (ip), vehicle: saline) of the same molecule?
**A.** The T/C was 143 % of control.

**Q.** What about the T/C (dose: 80.0 mg/kg/injection, schedule: Q04DX003 (ip), vehicle: other) of the same molecule?
**A.** The T/C was 145 % of control [9 of 10 alive on day 10].

**Q.** What about the survivor count [3] of the same molecule?
**A.** Its survivor count is 7 of 10.

**Q.** What about the survivor count [1] of the same molecule?
**A.** The survivor count was 10 of 10.

**Q.** For `O=C1CC(NC(=O)OCc2ccccc2)C(=O)O1` (stereo not given), which survivor count (dose: 400.0 mg/kg/injection, schedule: Q01DX009 (ip), vehicle: alcohol) is on record?
**A.** Its survivor count is 10 of 10.

**Q.** How did the survivor count [3] turn out when `C/C(=C\c1ccccc1)[N+](=O)[O-]` was run?
**A.** Its survivor count is 8 of 10.

**Q.** And the T/C (dose: 100.0 mg/kg/injection, schedule: Q04DX003 (ip), vehicle: saline with Tween-80)?
**A.** The T/C was 128 % of control.

**Q.** With `CCCCCCCCCCCCCCCCCC(=O)[O][Pb]([CH3])([CH3])[CH3]` as the molecule, how does the survivor count (dose: 10.0 mg/kg/injection, schedule: Q01DX009 (ip), vehicle: Klucel (hydroxypropylcellulose) (HPC)) read?
**A.** Its survivor count is 10 of 10.

**Q.** What about the survivor count (dose: 20.0 mg/kg/injection, schedule: Q01DX009 (ip), vehicle: Klucel (hydroxypropylcellulose) (HPC)) of the same molecule?
**A.** Its survivor count is 7 of 10.

**Q.** With `COC(=O)C(CC(C)C)NC(=O)C(CSCc1ccccc1)NC(=O)OCc1ccccc1` (stereo not given) (Cbz-Cys(Bn)-Leu-OMe; configuration not given here) as the molecule, how does the survivor count (dose: 50.0 mg/kg/injection, schedule: Q04DX003 (ip), vehicle: DMSO) read?
**A.** The survivor count was 10 of 10.

**Q.** What about the survivor count (dose: 100.0 mg/kg/injection, schedule: Q04DX003 (ip), vehicle: DMSO) of the same molecule?
**A.** The survivor count was 10 of 10.

**Q.** And the survivor count (dose: 200.0 mg/kg/injection, schedule: Q04DX003 (ip), vehicle: DMSO)?
**A.** Its survivor count is 10 of 10.

**Q.** Which survivor count (dose: 8.0 mg/kg/injection, schedule: Q01DX009 (ip), vehicle: water) does the source give for `CC[n+]1ccc(Nc2ccc(NC(=O)c3ccc(Nc4cc[n+](CC)c5ccc(N)cc45)cc3)cc2)cc1` here?
**A.** The survivor count was 10 of 10.

**Q.** What does the source list for `CC(=O)Nc1ccc(CCCCc2cccc(C(=N)N)c2)cc1`?
**A.** survivor count (dose: 37.5 mg/kg/injection, schedule: Q04DX003 (ip), vehicle: saline with Tween-80): 10 of 10; survivor count [2]: 1 of 10; survivor count (dose: 75.0 mg/kg/injection, schedule: Q04DX003 (ip), vehicle: saline with Tween-80): 8 of 10
